Results reported in the supplement of paper PMC10849652.
The other results are listed elsewhere or left out.

Amino acid sequences for entries named in this document (tags omitted). A change or cut given only in a name is not applied to a line headed by its entry.
UniProt P30405: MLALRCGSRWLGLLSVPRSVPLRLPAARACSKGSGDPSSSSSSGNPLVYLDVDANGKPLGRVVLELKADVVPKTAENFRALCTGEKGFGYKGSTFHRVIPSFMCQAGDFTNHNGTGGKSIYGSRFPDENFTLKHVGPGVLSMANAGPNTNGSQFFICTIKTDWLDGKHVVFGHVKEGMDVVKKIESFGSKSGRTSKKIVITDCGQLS
UniProt O94903: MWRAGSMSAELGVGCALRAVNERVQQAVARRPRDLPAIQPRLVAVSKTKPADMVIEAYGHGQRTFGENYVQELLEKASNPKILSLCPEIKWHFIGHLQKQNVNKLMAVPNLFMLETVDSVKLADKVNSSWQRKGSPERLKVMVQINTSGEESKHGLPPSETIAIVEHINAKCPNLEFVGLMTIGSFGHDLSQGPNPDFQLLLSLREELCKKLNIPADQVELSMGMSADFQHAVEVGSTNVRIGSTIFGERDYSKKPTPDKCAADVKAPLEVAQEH
UniProt O15160, whole entry, looked up: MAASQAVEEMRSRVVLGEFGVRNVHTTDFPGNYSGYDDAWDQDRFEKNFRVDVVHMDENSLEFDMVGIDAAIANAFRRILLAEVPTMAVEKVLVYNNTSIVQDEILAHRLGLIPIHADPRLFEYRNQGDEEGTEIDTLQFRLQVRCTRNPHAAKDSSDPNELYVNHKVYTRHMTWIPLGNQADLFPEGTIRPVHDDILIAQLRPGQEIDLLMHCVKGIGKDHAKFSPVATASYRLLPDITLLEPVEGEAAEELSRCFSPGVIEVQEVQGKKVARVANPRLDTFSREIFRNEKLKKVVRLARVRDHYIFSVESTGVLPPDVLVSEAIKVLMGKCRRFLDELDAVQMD
UniProt O95707: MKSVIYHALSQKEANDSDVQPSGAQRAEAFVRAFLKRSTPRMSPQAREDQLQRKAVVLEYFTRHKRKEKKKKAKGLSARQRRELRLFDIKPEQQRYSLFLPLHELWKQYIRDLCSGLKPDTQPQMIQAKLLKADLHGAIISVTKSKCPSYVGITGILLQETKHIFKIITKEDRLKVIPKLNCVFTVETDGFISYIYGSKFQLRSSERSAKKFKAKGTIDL
UniProt Q9UNP9: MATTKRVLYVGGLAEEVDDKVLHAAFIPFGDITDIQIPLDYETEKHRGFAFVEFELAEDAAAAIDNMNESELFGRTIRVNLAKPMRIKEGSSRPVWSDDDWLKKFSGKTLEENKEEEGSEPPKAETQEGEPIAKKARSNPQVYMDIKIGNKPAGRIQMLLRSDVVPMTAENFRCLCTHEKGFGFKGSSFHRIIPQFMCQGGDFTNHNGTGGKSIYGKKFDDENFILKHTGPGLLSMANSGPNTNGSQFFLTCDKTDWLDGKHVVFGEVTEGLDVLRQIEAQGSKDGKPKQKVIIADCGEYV
UniProt P05423: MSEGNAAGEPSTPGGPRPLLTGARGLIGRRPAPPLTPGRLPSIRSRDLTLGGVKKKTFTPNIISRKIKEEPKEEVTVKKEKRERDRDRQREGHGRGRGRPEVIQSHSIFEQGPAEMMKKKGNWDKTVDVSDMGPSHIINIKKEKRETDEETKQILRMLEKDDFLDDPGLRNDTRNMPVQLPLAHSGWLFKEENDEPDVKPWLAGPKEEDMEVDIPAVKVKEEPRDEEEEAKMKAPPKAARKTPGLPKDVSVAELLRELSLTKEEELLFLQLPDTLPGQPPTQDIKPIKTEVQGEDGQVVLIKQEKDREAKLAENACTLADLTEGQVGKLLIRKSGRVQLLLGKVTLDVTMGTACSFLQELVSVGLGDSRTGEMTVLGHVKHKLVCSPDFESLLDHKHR
UniProt P41247: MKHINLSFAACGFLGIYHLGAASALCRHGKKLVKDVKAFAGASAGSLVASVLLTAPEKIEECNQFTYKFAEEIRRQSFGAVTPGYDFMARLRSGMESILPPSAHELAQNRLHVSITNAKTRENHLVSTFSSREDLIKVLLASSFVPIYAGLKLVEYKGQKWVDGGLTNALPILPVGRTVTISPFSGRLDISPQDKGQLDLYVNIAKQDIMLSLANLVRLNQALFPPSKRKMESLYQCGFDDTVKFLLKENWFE
UniProt Q9Y535: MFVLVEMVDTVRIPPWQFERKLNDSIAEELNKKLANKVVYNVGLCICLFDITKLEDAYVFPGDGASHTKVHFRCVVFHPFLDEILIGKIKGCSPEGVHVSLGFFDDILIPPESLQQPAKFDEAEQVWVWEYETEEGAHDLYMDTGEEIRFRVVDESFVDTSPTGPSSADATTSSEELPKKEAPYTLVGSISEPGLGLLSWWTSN
UniProt P45877: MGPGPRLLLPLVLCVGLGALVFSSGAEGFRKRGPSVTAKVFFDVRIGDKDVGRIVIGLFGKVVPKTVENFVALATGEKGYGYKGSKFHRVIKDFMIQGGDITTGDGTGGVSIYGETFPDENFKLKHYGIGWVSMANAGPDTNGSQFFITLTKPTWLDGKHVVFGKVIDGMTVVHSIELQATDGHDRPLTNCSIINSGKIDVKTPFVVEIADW
UniProt P0DPB6, whole entry, looked up: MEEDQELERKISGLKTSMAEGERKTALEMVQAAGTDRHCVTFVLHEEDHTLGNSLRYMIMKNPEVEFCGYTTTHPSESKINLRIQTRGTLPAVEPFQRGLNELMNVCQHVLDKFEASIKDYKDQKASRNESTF
UniProt Q7Z3K3: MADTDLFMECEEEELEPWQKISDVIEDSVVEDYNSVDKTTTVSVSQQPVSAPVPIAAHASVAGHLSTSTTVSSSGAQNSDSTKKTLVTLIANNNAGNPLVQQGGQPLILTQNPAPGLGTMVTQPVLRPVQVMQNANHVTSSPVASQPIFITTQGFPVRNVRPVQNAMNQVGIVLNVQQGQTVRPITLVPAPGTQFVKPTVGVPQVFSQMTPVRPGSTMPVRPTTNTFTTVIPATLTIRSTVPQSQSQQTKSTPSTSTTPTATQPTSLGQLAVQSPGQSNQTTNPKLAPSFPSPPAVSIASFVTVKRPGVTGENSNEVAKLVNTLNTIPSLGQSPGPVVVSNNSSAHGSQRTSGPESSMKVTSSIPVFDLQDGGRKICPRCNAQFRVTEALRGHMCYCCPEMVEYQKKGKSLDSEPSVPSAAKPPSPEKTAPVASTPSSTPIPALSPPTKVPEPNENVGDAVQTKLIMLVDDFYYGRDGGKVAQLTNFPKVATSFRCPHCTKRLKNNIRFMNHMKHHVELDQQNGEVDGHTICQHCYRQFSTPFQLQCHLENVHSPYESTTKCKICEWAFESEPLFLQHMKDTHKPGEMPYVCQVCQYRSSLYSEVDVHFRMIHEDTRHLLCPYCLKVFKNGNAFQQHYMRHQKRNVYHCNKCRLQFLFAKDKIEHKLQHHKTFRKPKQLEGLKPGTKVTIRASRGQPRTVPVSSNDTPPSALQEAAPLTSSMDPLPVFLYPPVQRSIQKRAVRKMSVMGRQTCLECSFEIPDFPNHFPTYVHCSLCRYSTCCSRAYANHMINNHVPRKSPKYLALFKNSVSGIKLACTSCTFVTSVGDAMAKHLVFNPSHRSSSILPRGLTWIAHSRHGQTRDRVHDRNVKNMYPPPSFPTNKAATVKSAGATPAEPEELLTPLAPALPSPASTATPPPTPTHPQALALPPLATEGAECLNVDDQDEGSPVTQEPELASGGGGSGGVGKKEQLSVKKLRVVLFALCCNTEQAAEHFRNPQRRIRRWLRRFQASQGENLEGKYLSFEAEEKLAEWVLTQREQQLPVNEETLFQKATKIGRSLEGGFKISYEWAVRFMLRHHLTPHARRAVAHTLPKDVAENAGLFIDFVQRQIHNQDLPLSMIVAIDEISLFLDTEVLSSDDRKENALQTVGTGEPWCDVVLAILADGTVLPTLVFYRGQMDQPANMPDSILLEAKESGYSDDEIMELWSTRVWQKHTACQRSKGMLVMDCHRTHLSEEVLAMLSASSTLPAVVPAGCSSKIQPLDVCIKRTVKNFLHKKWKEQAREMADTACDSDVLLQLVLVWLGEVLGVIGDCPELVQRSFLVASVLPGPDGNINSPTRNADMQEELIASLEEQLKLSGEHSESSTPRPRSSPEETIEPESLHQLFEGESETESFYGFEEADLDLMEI
UniProt P11086: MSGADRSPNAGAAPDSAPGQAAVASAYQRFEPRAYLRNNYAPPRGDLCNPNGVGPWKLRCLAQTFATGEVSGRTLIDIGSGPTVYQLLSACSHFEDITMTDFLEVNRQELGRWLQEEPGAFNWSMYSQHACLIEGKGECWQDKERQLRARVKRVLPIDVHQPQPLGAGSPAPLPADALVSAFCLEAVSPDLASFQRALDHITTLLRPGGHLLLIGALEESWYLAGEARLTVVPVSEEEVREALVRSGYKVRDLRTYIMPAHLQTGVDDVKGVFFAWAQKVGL
UniProt P55058, whole entry, looked up: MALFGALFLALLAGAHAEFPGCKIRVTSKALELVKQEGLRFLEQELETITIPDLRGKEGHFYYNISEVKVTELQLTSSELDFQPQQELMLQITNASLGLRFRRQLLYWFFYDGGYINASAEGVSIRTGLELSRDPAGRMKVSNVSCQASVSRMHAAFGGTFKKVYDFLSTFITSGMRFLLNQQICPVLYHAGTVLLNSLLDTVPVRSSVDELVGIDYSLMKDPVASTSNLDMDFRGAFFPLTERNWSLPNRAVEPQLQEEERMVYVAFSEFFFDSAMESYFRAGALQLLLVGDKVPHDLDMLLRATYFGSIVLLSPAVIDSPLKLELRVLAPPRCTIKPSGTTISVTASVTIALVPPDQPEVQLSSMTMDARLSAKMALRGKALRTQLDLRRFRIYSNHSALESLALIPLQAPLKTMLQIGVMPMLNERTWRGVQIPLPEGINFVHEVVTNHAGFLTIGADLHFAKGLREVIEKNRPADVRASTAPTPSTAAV
UniProt P54098: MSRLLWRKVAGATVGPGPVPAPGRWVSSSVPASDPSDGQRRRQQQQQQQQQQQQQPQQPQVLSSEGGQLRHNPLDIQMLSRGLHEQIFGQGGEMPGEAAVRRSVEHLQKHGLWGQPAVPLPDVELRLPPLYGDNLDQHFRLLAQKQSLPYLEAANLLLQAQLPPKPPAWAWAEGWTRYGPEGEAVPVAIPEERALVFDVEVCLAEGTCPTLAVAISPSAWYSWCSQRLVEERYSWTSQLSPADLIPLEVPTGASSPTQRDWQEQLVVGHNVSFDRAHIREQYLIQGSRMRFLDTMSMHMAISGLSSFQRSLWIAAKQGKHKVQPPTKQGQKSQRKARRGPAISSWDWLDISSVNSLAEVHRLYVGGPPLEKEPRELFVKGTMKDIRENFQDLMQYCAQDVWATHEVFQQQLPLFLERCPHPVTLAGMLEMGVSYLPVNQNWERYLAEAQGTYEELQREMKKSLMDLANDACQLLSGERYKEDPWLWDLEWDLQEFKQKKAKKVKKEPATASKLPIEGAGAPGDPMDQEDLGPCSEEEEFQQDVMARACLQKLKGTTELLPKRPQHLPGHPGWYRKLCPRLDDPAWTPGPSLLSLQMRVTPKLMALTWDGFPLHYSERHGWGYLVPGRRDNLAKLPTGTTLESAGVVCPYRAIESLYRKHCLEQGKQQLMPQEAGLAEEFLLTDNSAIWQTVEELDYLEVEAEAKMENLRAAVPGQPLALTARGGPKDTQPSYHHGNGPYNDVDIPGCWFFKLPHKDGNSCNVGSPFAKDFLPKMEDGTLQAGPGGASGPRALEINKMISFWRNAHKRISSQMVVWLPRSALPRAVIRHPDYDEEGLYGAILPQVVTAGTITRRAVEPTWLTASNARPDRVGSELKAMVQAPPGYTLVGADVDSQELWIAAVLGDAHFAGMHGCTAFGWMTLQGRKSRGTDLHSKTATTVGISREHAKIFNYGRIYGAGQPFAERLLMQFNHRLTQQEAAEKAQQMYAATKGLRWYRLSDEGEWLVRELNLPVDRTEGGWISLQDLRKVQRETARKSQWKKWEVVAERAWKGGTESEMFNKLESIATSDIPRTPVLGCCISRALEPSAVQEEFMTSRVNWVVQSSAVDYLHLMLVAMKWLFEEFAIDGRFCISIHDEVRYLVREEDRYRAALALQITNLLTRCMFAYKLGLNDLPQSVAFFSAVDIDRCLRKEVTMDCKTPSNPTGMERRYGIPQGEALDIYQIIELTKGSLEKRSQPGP

Assays:
Experiment in all cases: log2 fold change, soluble protein after heating vs DMSO (PISA); higher = thermal stabilisation; K562 cells, 10 uM, 30 min; active = over 0.2 and 3.5 SD of the protein, either way, in both replicates (recomputed)
[1] = compound: NC(=O)Nc1cc(-c2cccc(F)c2)sc1C(=O)N[C@H]1CCCNC1
How it was run: (§1)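 K562 cells at 2×10^6 cells/mL were treated with 10 μM compound for 30 min. Aliquots were heated for 3 min across 48°C-58°C, pooled, and extracted in PBS with 0.5% NP-40 at 4°C; soluble protein was the supernatant after 21,000xg for 90 min. Soluble protein was quantified by TMTpro 16plex LC-MS/MS with channel sums equalised, and reported as log2 fold change in thermal stability against DMSO controls, with values from duplicates.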

[2] = compound: NC(=O)c1cnc(N[C@@H]2CCCC[C@@H]2N)nc1Nc1cccc(-n2nccn2)c1
How it was run: as §1

[3] = compound: NC1(c2ccc(-c3nc4ccn5c(=O)[nH]nc5c4cc3-c3ccccc3)cc2)CCC1
How it was run: as §1

[4] = compound: NCC(=O)Nc1ccc(-n2nc(C(F)(F)F)cc2-c2ccc3c(ccc4ccccc43)c2)cc1
How it was run: as §1

[5] = compound: Nc1ccccc1NC(=O)c1ccc(CNC(=O)OCc2cccnc2)cc1 [entinostat]
How it was run: as §1

[6] = compound: O=C(CCCCCCC(=O)Nc1ccccc1)NO [vorinostat]
How it was run: as §1

[7] = compound: O=C(CCCCCCNC(=O)c1cnc(N(c2ccccc2)c2ccccc2Cl)nc1)NO [citarinostat]
How it was run: as §1

[8] = compound: O=C(O)c1ccc2c(c1)nc(Nc1cccc(Cl)c1)c1ccncc12 [silmitasertib]
How it was run: as §1

[9] = compound: O=C1NC(=O)C(c2cnc3ccccn23)=C1c1cn2c3c(cc(F)cc13)CN(C(=O)N1CCCCC1)CC2
How it was run: as §1

[10] = compound: c1cc(OCCN2CCCCC2)cc(-c2n[nH]c3ccc(-c4nnc[nH]4)cc23)c1
How it was run: as §1

[11] = compound: c1cn2cc(-c3ccc4cn[nH]c4c3)nc(Nc3ccc(N4CCOCC4)cc3)c2n1 [entospletinib]
How it was run: as §1

Target | log2 fold change [1] | log2 fold change [2] | log2 fold change [3] | log2 fold change [4] | log2 fold change [5] | log2 fold change [6] | log2 fold change [7] | log2 fold change [8] | log2 fold change [9] | log2 fold change [10] | log2 fold change [11]
POSTN (UniProt Q15063) | inactive: -0.085 | inactive: -0.049 | inactive: -0.164 | inactive: -0.053 | inactive: -0.018 | inactive: 0.226 | inactive: -0.019 | inactive: 0.143 | inactive: 0.003 | inactive: 0.041 | inactive: 0.105
PNP (UniProt P00491) | inactive: 0.022 | inactive: -0.003 | inactive: -0.015 | inactive: 0.015 | inactive: -0.036 | inactive: -0.012 | inactive: 0.019 | inactive: 0.005 | inactive: 0.001 | inactive: 0.008 | inactive: -0.016
PPIF (UniProt P30405) | inactive: -0.023 | inactive: -0.02 | inactive: 0.012 | inactive: -0.048 | inactive: -0.004 | inactive: 0.009 | inactive: 0.032 | inactive: -0.033 | inactive: -0.173 | inactive: -0.009 | inactive: 0.035
POR (UniProt P16435) | inactive: -0.036 | inactive: 0.011 | inactive: -0.031 | inactive: -0.034 | inactive: -0.005 | inactive: -0.01 | inactive: 0.032 | inactive: 0.01 | inactive: -0.039 | inactive: -0.044 | inactive: -0.032
PLPBP (UniProt O94903) | inactive: -0.045 | inactive: -0.114 | inactive: -0.086 | inactive: -0.055 | inactive: 0.041 | inactive: 0.032 | inactive: -0.076 | inactive: 0.045 | inactive: 0.023 | inactive: 0.1 | inactive: 0.143
PPAN isoform 3 (UniProt Q9NQ55) | inactive: -0.18 | inactive: 0.106 | inactive: 0.026 | inactive: 0.06 | inactive: -0.205 | inactive: 0.084 | inactive: 0.009 | inactive: 0.237 | inactive: 0.347 | inactive: -0.199 | inactive: -0.064
POLR1C (UniProt O15160) | inactive: -0.023 | inactive: -0.041 | inactive: 0.008 | inactive: 0.041 | inactive: 0.069 | inactive: 0.036 | inactive: 0.041 | inactive: 0.122 | inactive: 0.055 | inactive: -0.101 | inactive: 0.083
PPM1B (UniProt O75688) | inactive: -0.031 | inactive: 0.018 | inactive: -0.13 | inactive: -0.052 | inactive: -0.004 | inactive: -0.01 | inactive: -0.013 | inactive: -0.026 | inactive: -0.047 | inactive: -0.033 | inactive: 0.025
POP4 (UniProt O95707) | inactive: -0.083 | inactive: -0.065 | inactive: -0.004 | inactive: -0.057 | inactive: -0.009 | inactive: -0.034 | inactive: 0.013 | inactive: 0.018 | inactive: -0.033 | inactive: -0.165 | inactive: -0.018
PNO1 (UniProt Q9NRX1) | inactive: 0.022 | inactive: 0.133 | inactive: 0.08 | inactive: -0.037 | inactive: 0.072 | inactive: 0.217 | inactive: 0.05 | inactive: -0.017 | inactive: 0.154 | inactive: -0.079 | inactive: -0.062
PPIE (UniProt Q9UNP9) | inactive: -0.136 | inactive: -0.025 | inactive: -0.026 | inactive: -0.01 | inactive: -0.032 | inactive: -0.023 | inactive: 0.11 | inactive: 0.076 | inactive: -0.038 | inactive: 0.011 | inactive: -0.034
PPIP5K1 (UniProt Q6PFW1) | inactive: -0.029 | inactive: -0.027 | inactive: -0.02 | inactive: 0.036 | inactive: -0.03 | inactive: -0.004 | inactive: 0.033 | inactive: -0.005 | inactive: -0.034 | inactive: -0.011 | inactive: 0.015
POLE3 (UniProt Q9NRF9) | inactive: 0.015 | inactive: -0.001 | inactive: -0.045 | inactive: -0.091 | inactive: 0 | inactive: -0.04 | inactive: 0.019 | inactive: -0.014 | inactive: -0.062 | inactive: 0.245 | inactive: -0.078
PPAT (UniProt Q06203) | inactive: 0.007 | inactive: 0.004 | inactive: -0.016 | inactive: 0.015 | inactive: -0.038 | inactive: -0.037 | inactive: 0.027 | inactive: -0.045 | inactive: -0.031 | inactive: -0.026 | inactive: -0.021
POLR3F (UniProt Q9H1D9) | inactive: 0.006 | inactive: -0.043 | inactive: 0.006 | inactive: -0.01 | inactive: -0.027 | inactive: 0.111 | inactive: -0.012 | inactive: -0.015 | inactive: -0.038 | inactive: -0.124 | inactive: 0.019
POLR3D (UniProt P05423) | inactive: -0.061 | active: 1.51 | inactive: -0.115 | inactive: -0.028 | inactive: 0.03 | inactive: 0.158 |  | inactive: 0.078 | inactive: 0.032 |  | 
PPIL3 isoform 2 (UniProt Q9H2H8) | inactive: 0.106 | inactive: -0.089 |  | inactive: 0.043 | inactive: 0.071 | inactive: 0.029 | inactive: 0.19 |  | inactive: -0.136 | inactive: -0.151 | inactive: 0.098
PNPLA4 (UniProt P41247) | inactive: 0 | inactive: -0.118 | inactive: -0.357 | inactive: 0.131 | inactive: -0.093 |  | inactive: 0.602 | inactive: 0.012 |  | inactive: -0.071 | 
POLR3H (UniProt Q9Y535) | inactive: 0.068 | inactive: -0.118 | inactive: -0.073 | inactive: -0.018 | inactive: -0.009 | inactive: 0.117 |  | inactive: 0.013 | inactive: 0.079 |  | 

Target | log2 fold change [1] | log2 fold change [2] | log2 fold change [3] | log2 fold change [4] | log2 fold change [5] | log2 fold change [6] | log2 fold change [7] | log2 fold change [8] | log2 fold change [9] | log2 fold change [10] | log2 fold change [11]
POLR2C (UniProt P19387) | inactive: -0.046 | inactive: -0.026 | inactive: -0.131 | inactive: -0.196 | inactive: -0.031 |  | inactive: 0.017 | inactive: 0.118 | inactive: -0.023 | inactive: -0.195 | 
PPIC (UniProt P45877) | inactive: 0.012 | inactive: -0.001 | inactive: -0.091 |  | inactive: 0.019 | inactive: -0.238 | inactive: 0.033 | inactive: 0.036 | inactive: -0.044 | inactive: 0.065 | inactive: -0.037
PLXNA3 (UniProt P51805) | inactive: 0.003 | inactive: -0.213 | inactive: -0.087 |  | inactive: -0.036 | inactive: 0.072 |  | inactive: 0.049 | inactive: -0.209 |  | 
PPIP5K2 (UniProt H0Y9S9) | inactive: 0.041 |  | inactive: 0.057 |  | inactive: -0.002 |  | inactive: 0.038 | inactive: 0.083 | inactive: -0.017 | inactive: 0.032 | inactive: 0.163
POLR1D (UniProt P0DPB6) | inactive: -0.021 | inactive: -0.057 | inactive: 0.01 | inactive: -0.09 | inactive: 0.136 |  | inactive: -0.013 | inactive: 0.06 | inactive: 0.092 | inactive: 0.014 | inactive: -0.016
PLG (UniProt P00747) | inactive: -0.075 | inactive: -0.062 |  | inactive: 0.151 | inactive: -0.025 | inactive: -0.008 |  |  |  |  | 
POLR2M (UniProt Q6EEV4) | inactive: 0.027 | inactive: -0.09 | inactive: -0.065 | inactive: -0.056 | inactive: -0.148 |  | inactive: 0.029 | inactive: 0.03 | inactive: -0.122 | inactive: -0.009 | 
POGZ (UniProt Q7Z3K3) | inactive: 0.009 | inactive: 0.167 |  | inactive: -0.028 | inactive: -0.031 | inactive: -0.186 | inactive: -0.206 |  | inactive: -0.114 | active: -0.483 | 
PNKP (UniProt Q96T60) | inactive: -0.148 | inactive: 0.138 |  | inactive: -0.077 | inactive: 0.057 | inactive: -0.333 | inactive: 0.078 |  |  | inactive: 0.198 | inactive: -0.131
PNMT (UniProt P11086) | inactive: 0.331 | inactive: -0.04 |  |  | inactive: -0.018 |  |  |  |  |  | 
PLTP (UniProt P55058) | inactive: 0.14 |  | inactive: -0.027 | inactive: 0.026 | inactive: -0.19 | inactive: 0.041 | inactive: 0.009 | inactive: 0.1 | inactive: 0.074 | inactive: -0.138 | inactive: 0.017
POLG (UniProt P54098) | inactive: -0.078 | inactive: -0.231 | inactive: -0.106 | inactive: -0.184 | inactive: 0.021 | inactive: -0.105 |  | inactive: 0.025 | inactive: 0.097 |  | 
PLXNB1 (UniProt O43157) | inactive: -0.216 | inactive: -0.045 |  |  | inactive: -0.105 |  |  |  | inactive: 0.071 |  | 
POMGNT2 (UniProt Q8NAT1) | inactive: 0.005 | inactive: 0.123 | inactive: -0.078 | inactive: 0.025 | inactive: 0.038 | inactive: -0.019 |  | inactive: 0.075 |  |  | 
PLOD3 (UniProt O60568) | inactive: -0.047 | inactive: -0.044 | inactive: -0.008 | inactive: 0.014 | inactive: -0.024 | inactive: -0.021 | inactive: 0.006 | inactive: 0.025 | inactive: 0.024 | inactive: -0.057 | inactive: -0.013
PLGRKT (UniProt Q9HBL7) | inactive: -0.157 | inactive: -0.055 | inactive: -0.238 |  | inactive: 0.026 | inactive: -0.083 | inactive: 0.069 | inactive: 0.031 | inactive: -0.082 | inactive: -0.179 | inactive: -0.181
PPFIA1 (UniProt Q13136) | inactive: -0.047 | inactive: -0.034 | inactive: -0.059 | inactive: -0.142 | inactive: 0.006 | inactive: 0.025 | inactive: -0.082 | inactive: 0.127 | inactive: 0.038 | inactive: -0.012 | inactive: -0.121
PLIN3 isoform 2 (UniProt O60664) | inactive: -0.402 | inactive: -0.308 | inactive: -0.271 |  | inactive: -0.191 |  | inactive: -0.206 | inactive: 0.297 | inactive: -0.516 | inactive: -0.068 | inactive: 0.256
PMVK (UniProt Q15126) | inactive: -0.04 | inactive: -0.001 | inactive: -0.114 | inactive: 0.29 | inactive: -0.08 | inactive: -0.134 |  | inactive: 0.065 | inactive: 0.048 |  | 

Part of the list above in another layout.
Target	log2 fold change [1]	log2 fold change [2]	log2 fold change [3]	log2 fold change [4]	log2 fold change [5]	log2 fold change [6]	log2 fold change [7]	log2 fold change [8]	log2 fold change [9]	log2 fold change [10]	log2 fold change [11]
POLG (UniProt P54098)	inactive: -0.078	inactive: -0.231	inactive: -0.106	inactive: -0.184	inactive: 0.021	inactive: -0.105		inactive: 0.025	inactive: 0.097		
PLXNB1 (UniProt O43157)	inactive: -0.216	inactive: -0.045			inactive: -0.105				inactive: 0.071		
